## Screening data, single-dose tests

From ChEMBL document CHEMBL3988442, “University of Dundee, Small-Polar-MMV Screening Library” (2021).

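Whole-parasite assay of Trypanosoma brucei over 72 hours; the read-out is not stated. Compounds at 10 µM. The record gives no direction; compounds that gave an IC50 in retests scored well above the rest, so higher reads as stronger inhibition. Values scatter widely below zero; nearly all retest evidence comes from the higher of the two concentrations used. Size under these conditions: about 2,700 compounds, about 14 of them at 50% or above in at least one test.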

Values are the deposited “Percent Effect”, in %.
The record does not define 0% and 100%; most values in the screen are far below 50% and negative numbers occur (in some assays of this library far below -100).
This is an unselected part of the compounds tested.

| SMILES | percent effect |
|---|---|
| `Cc1nc(C)n(CC2CCCCN2CCc2ccncc2)n1` (stereo not drawn) | -53.69% |
| `Cc1cccc(C(=O)N2CCCN(Cc3cscn3)CC2)c1` | -69.8% |
| `CC(C)(O)CN1CCN(C(=O)c2sccc2C#N)CC1` | -19.88% |
| `O=C(NCC(=O)N1CCCc2ccccc21)c1c(O)cc(F)cc1F` | -23.56% |
| `O=C(NCCCN1CCc2ccccc2C1)c1ccccc1Cl` | -14.55% |
| `CCCN1CCC(CNC(=O)C2(c3cccc(C)c3)CC2)C1` (stereo not drawn) | -16.73% |
| `Cc1cc(C)c(C(=O)N2CCOCC2c2c(C)nn(C)c2C)o1` (stereo not drawn) | -38.43% |
| `Cc1cnn(CC2CCCN2CCCS(C)(=O)=O)c1` (stereo not drawn) | -11.15% |
| `NC(=O)C1CCN(CCc2ccc(NC(=O)C3CC3)cc2)CC1` | -21.6% |
| `CCCn1nc2c(cc1=O)CN(Cc1nc(-c3ccco3)no1)CC2` | -52.23% |
| `CCc1nnc2n1CCN(C(=O)c1ccc(-c3ccco3)[nH]c1=O)C2` | -7.729% |
| `Cn1cnnc1C1CCCN(C(=O)COc2ccccc2Cl)C1` (stereo not drawn) | -59.82% |
| `CCc1noc(C(C)N2CCC(O)CC2)n1` (stereo not drawn) | -23.57% |
| `NC(=O)c1cc(C2CCCN(C(=O)CCc3ccccn3)C2)n[nH]1` (stereo not drawn) | -40.87% |
| `CNc1cc2c(nn1)CCN(C(=O)c1coc(Br)c1)C2` | -38.12% |
| `CCN1CCN(c2ccc(CNC(=O)c3cnn(C)c3C)cn2)CC1` | -4.164% |
| `Cc1nn(C)c(N(C)C)c1CNCc1ccc(C(=O)N(C)C)cc1` | -34.9% |
| `NC(=O)c1ccc(C(=O)N2CCCC(n3ccnc3)C2)s1` (stereo not drawn) | -48.66% |
| `CCn1nc2c(cc1=O)CN(CC(=O)Nc1nnc(C)s1)CC2` | -53.8% |
| `CNc1cc2c(nn1)CCN(C(=O)c1ccc3c(c1)OCO3)C2` | -38.57% |
| `CCOc1ccc(OCC(O)CN2CCN(S(C)(=O)=O)CC2)cc1` (stereo not drawn) | -45.63% |
| `N#Cc1cn(C2CC2)c(=O)n(CC(O)c2ccccc2C(F)(F)F)c1=O` (stereo not drawn) | -78.61% |
| `Cc1noc(C)c1C(=O)NCC(c1cccc(F)c1)N(C)C` (stereo not drawn) | -27.18% |
| `CN(C)c1ccc(C(=O)N2CCC(c3n[nH]c(C4CC4)n3)CC2)cc1` | -18.53% |
| `c1cnn(-c2ccc(CN3CCCC(Cn4cncn4)C3)cc2)c1` (stereo not drawn) | -1.732% |
| `CC(=O)N(C)c1nc(CN2CCCC2c2cnn(C)c2)cs1` (stereo not drawn) | -4.519% |
| `Cc1ccccc1OCC(=O)N1CCCC(CNS(C)(=O)=O)C1` (stereo not drawn) | 10.41% |
| `CCn1ccnc1CN1CCCC1Cn1cc(C)cn1` (stereo not drawn) | -54.58% |
| `Cc1nnc(NC(=O)CN2CCc3nn(C)c(=O)cc3C2)s1` | -34.33% |
| `CC(C(=O)N1CCCN(Cc2cscn2)CC1)N1CCOCC1` (stereo not drawn) | -42.3% |
| `Cc1ccccc1-c1noc(CN2CCc3cncnc3C2)n1` | -54.09% |
| `COc1c(C)cnc(CN2CCCC(Cn3nc(C)nc3C)C2)c1C` (stereo not drawn) | -63.77% |
| `O=C(CCn1cncn1)N1CCCC1c1noc(C2CC2)n1` (stereo not drawn) | -39.57% |
| `Cc1nc(C)c(CC(=O)Nc2nc(C)c(C)s2)c(=O)[nH]1` | -7.58% |
| `Cc1nc(CN2CCCC(NCCCOc3ccc(F)cc3)C2)no1` (stereo not drawn) | 17.69% |
| `CN(C)CC1CN(Cc2coc(-c3ccc(Cl)cc3)n2)CCO1` (stereo not drawn) | -46.52% |
| `CCc1nc(CN(C)C2CCN(CCc3cccs3)C2)no1` (stereo not drawn) | -36.03% |
| `COc1ccc(COCC(O)CNC(=O)c2cccc(OC)c2)cc1` (stereo not drawn) | -146% |
| `Cc1ccc(CNC(=O)NC(C)Cn2cccn2)cn1` (stereo not drawn) | -38.6% |
| `Cn1cc(CC(=O)N2CCCC(n3cncn3)C2)cn1` (stereo not drawn) | -11.87% |
| `CCc1ccsc1C(=O)N1CCCN(Cc2cscn2)CC1` | -65.74% |
| `Cc1nc2c(c(C)c1CC(=O)NCc1ccco1)c(=O)[nH]n2C` | -48.2% |
| `O=C(c1ccc(N2CCOCC2)nc1)N1CCCC(n2ccnc2)C1` (stereo not drawn) | -61.36% |

Some entries from above, unchanged:

- Cc1nnc(NC(=O)CN2CCc3nn(C)c(=O)cc3C2)s1 : -34.33%
- CCc1noc(C(C)N2CCC(O)CC2)n1 (stereo not drawn) : -23.57%
- c1cnn(-c2ccc(CN3CCCC(Cn4cncn4)C3)cc2)c1 (stereo not drawn) : -1.732%